Patent US5925331A, “Technetium-99m labeled peptides for thrombus imaging” (Diatide, Inc., priority 1995, dated 1999)
At least one peptide structure holds a part that was inferred or is arguable (an end, a ring closure or a residue). Bridge positions count the residues as written; N and C are the ends. Square brackets hold non-standard residues; d marks the D form. Peptide text beside a SMILES is read from it. * marks the point of attachment. Propyl(3-NH2) = NCCC*; Acm = CC(=O)NC*

Tested on: human platelets in platelet-rich plasma
Experiment: Platelet aggregation inhibition assay (ADP-induced, platelet-rich plasma)
Type: cell-based
Conditions: fresh human platelet-rich plasma, 300,000 platelets per microliter; ADP 10 to 15 micromolar; read-out: IC50: concentration of reagent that inhibits by 50% the aggregation of human platelets in platelet-rich plasma induced by ADP
Experimental: Platelet aggregation studies were performed essentially as described by Zucker (1989, Methods in Enzymol. 169: 117-133). Briefly, platelet aggregation was assayed with or without putative platelet aggregation inhibitory compounds using fresh human platelet-rich plasma, comprising 300,000 platelets per microliter. Platelet aggregation was induced by the addition of a solution of adenosine diphosphate to a final concentration of 10 to 15 micromolar, and the extent of platelet aggregation monitored using a Bio/Data aggregometer (Bio/Data Corp., Horsham, Pa.). The concentrations of platelet aggregation inhibitory compounds used were varied from 0.1 to 500 μg/mL. The concentration of inhibitor that reduced the extent of platelet aggregation by 50% (defined as the IC50) was determined from plots of inhibitor concentration versus extent of platelet aggregation. An inhibition curve for peptide RGDS was determined for each batch of platelets tested as a positive control.

Question: With `CC(=O)NCSC[C@H](NC(=O)CNC(=O)[C@H](CSCNC(C)=O)NC(=O)[C@@H]1CSCC(=O)N[C@H](Cc2ccc(O)cc2)C(=O)N[C@@H](CCCNC(=N)N)C(=O)NCC(=O)N[C@@H](CC(=O)O)C(=O)N1)C(N)=O` [Peptide P81, CH2 CO--YD RGDCCAcm GCAcm amide] ({CH2CO}-[dY]RGDCC(Acm)GC(Acm)-NH2; thioether N-5) as the molecule, how does the IC50 read?
Answer: The IC50 was 25 µM.

Question: For `CC(=O)NCSC[C@H](NC(=O)CNC(=O)[C@H](CSCNC(C)=O)NC(=O)CNC(=O)CNC(=O)[C@@H]1CSCC(=O)N[C@H](Cc2ccc(O)cc2)C(=O)N[C@@H](CCCNC(=N)N)C(=O)NCC(=O)N[C@@H](CC(=O)O)C(=O)N1)C(N)=O` [Peptide P143, CH2 CO--YD RGDCGGCAcm GCAcm amide] ({CH2CO}-[dY]RGDCGGC(Acm)GC(Acm)-NH2; thioether N-5), which IC50 is on record?
Answer: Its IC50 is 1.3 µM.

Question: How did the IC50 turn out when `N=C(N)NCCC[C@H](N)C(=O)NCC(=O)N[C@@H](CC(=O)O)C(=O)N[C@@H](CO)C(=O)O` [RGDS, reference compound] was run?
Answer: Its IC50 is 150 to 250 µM.

Question: `CC(=O)NCSC[C@H](NC(=O)CNC(=O)[C@H](CSCNC(C)=O)NC(=O)CNC(=O)CNC(=O)CNC(=O)[C@@H]1CSCC(=O)N[C@H](Cc2ccc(O)cc2)C(=O)N[C@@H](CSCCCN)C(=O)NCC(=O)N[C@@H](CC(=O)O)C(=O)N1)C(N)=O` [Peptide P154, CH2 CO--YD ApcGDCGGGCAcm GCAcm amide] ({CH2CO}-[dY]C(Propyl(3-NH2))GDCGGGC(Acm)GC(Acm)-NH2; thioether N-5) was tested. Which IC50 did it give?
Answer: Its IC50 is 0.3 µM.
